The list shows only some results of the screen, not a fair sample: it gathers some chemical classes. Other doses and runs of a compound may be missing. T/C gives the treated animals as a percentage of the vehicle group. Where survival is the endpoint, this PubChem deposit counts one and a half times the control or more as active, and values a quarter to a half above the control carry no call in these data; other NCI protocols may use other cut-offs. Schedules are NCI's codes, taken here to give the interval after Q, in days (D) or hours (H), and the number of doses after X. Some T/C values are marked as having no survivor count here; that says nothing about deaths at the dose. Some entries hold several experiments; the values are given in rising order.
System: B6C3F1 mice, B16 melanoma ip, median survival T/C
Assay: NCI In Vivo Anticancer Drug Screen. Data for tumor model B16 Melanoma (intraperitoneal) in B6C3F1 mice
Details: T/C endpoint: median survival time, schedule: Q01DX009 (ip), higher T/C = longer survival
Method: The antitumor activity of compounds was measured in mice bearing transplantable tumors. Survival or tumor size were measured and the results are expressed as the measurement made in the treated group (T) divided by the measurement made in the vehicle treated control group (C). The tumor model used in this assay is B16 Melanoma (intraperitoneal) in B6C3F1 mice

Structure (SMILES)	T/C (dose: 0.12 mg/kg/injection, vehicle: water)	T/C (dose: 0.13 mg/kg/injection, vehicle: saline + alcohol)	T/C (dose: 0.25 mg/kg/injection, vehicle: saline + alcohol)	T/C (dose: 0.25 mg/kg/injection, vehicle: water)	T/C (dose: 0.5 mg/kg/injection, vehicle: saline + alcohol)	T/C (dose: 0.5 mg/kg/injection, vehicle: water)	T/C (dose: 1.0 mg/kg/injection, vehicle: saline + alcohol)	T/C (dose: 1.0 mg/kg/injection, vehicle: water)	T/C (dose: 2.0 mg/kg/injection, vehicle: saline + alcohol)	T/C (dose: 2.0 mg/kg/injection, vehicle: water)	T/C (dose: 3.12 mg/kg/injection, vehicle: Klucel (hydroxypropylcellulose) (HPC))
CC(=O)OC[C@]12CC(=O)C(C)=C[C@H]1O[C@@H]1C(=O)[C@@H](OC(C)=O)[C@@]2(C)[C@@]12CO2	117 % of control [survivor count not shown]	106 % of control [survivor count not shown]	108 % of control [survivor count not shown]	111 [survivor count not shown] and 157 % of control [survivor count not shown]	114 % of control [survivor count not shown]	122 [survivor count not shown] and 177 % of control [survivor count not shown]	128 % of control [survivor count not shown]	168 % of control [survivor count not shown]	139 % of control [survivor count not shown]	137 % of control [survivor count not shown]	–
CC(=O)OC[C@]12CCC(C)=C[C@H]1O[C@@H]1[C@H](O)[C@@H](OC(C)=O)[C@@]2(C)[C@@]12CO2	–	–	–	–	–	–	–	–	–	–	118 % of control [survivor count not shown]
